Library screening results

Sequences of proteins named here, by UniProt entry; tags and fusion partners are left off.
UniProt E9BF75, entry or part of it: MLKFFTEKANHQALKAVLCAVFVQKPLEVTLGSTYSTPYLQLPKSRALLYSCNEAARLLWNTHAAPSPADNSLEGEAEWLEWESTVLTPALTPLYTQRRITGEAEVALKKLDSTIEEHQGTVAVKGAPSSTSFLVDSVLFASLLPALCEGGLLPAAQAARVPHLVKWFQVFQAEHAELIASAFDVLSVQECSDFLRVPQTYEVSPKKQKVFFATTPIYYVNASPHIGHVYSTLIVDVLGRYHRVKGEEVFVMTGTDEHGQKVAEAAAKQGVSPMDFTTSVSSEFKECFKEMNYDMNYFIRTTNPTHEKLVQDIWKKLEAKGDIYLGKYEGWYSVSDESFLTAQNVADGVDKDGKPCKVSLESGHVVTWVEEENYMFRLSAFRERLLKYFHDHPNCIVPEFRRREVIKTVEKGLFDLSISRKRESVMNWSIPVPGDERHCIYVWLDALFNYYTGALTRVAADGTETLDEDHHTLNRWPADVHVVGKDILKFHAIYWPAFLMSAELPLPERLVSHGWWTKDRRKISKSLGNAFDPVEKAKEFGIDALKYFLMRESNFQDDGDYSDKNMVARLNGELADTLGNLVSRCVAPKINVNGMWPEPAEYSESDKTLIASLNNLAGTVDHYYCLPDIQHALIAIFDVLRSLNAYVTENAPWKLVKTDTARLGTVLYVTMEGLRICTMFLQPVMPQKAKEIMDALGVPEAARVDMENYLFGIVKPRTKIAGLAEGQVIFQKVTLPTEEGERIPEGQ

Data taken from ChEMBL document CHEMBL3988442, “University of Dundee, Small-Polar-MMV Screening Library” (2021).

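Methionyl-tRNA synthetase (putative), Leishmania donovani (UniProt E9BF75). Primary screen of methionyl-tRNA synthetase; the read-out is not stated. The test concentration is not given. The values are filed as inhibition. Size under these conditions: about 68,000 compounds, about 24 of them at 50% or above in at least one test.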

All values are in %.
The record does not define 0% and 100%; most values in the screen are far below 50% and negative numbers occur (in some assays of this library far below -100).
This is an unselected part of the compounds tested.

compound,Inhibition
O=C(NCc1ccccc1CN1CCOCC1)c1ccc(Br)cc1F,5.435
CCOCCCNc1nc(O)cc(C2CC(=O)N(C)C2)n1 (configuration not stated),10.62
Cc1cc(N2CCN(Cc3cn(C)nc3C)CC2)cc(C2CCNC2)n1 (configuration not stated),13.35
CNC(=O)[C@H]1C[C@@H]2CN(Cc3ccccc3)C[C@H]1O2,15.93
CC(C)N(C)Cc1noc2c1CN(C(=O)c1ccsc1)CC2,17.29
O=C(c1ccccc1N1CCOCC1)N1CCCC(n2ccnc2)C1 (configuration not stated),23.16
O=C1CC(C(=O)Nc2nnc(-c3ccccn3)[nH]2)c2ccccc2N1 (configuration not stated),6.959
Cc1nccn1CCC1CCCCN1Cc1cccc(CCN)c1 (configuration not stated),18.99
COC(=O)c1cccc(CNC(=O)CC(F)(F)F)c1,8.696
COc1ccnc(N(C)Cc2ccccc2OC(F)(F)F)n1,6.62
COc1ccc2cc(CN(C)CCc3cn[nH]c3)c(=O)[nH]c2c1,15.68
O=C(NCC(O)COc1ccc(F)cc1)C1(c2ccc(F)cc2)CC1 (configuration not stated),13.94
CCn1nc(C)cc1C(=O)Nc1cc(F)ccc1OCC1CCCO1 (configuration not stated),13.19
CC1CCC(O)(CSc2nnnn2C)CC1 (configuration not stated),16.26
O=S(=O)(CCc1ccccc1)Nc1cc(Cl)ccn1,21.05
Cc1noc(C2CCC3(CCN(C(=O)c4c(C)noc4C)CC3)O2)n1 (configuration not stated),13.01
CN1CC(=O)N(c2ccsc2)CC12CCN(C(=O)Nc1ccccc1)C2 (configuration not stated),8
CC(C)CNC(=O)[C@H]1C[C@@H]2CN(C(=O)Nc3ccc(F)cc3)C[C@H]1O2,15.85
CCOCCN1CCN(CC(=O)N2CCC2)CC1CC (configuration not stated),21.08
O[C@@H]1CN(Cc2cccnc2)C[C@H]1Oc1ccccc1,8.333
CCN1CCC(NC(=O)Cn2cc(C)c3ccccc32)CC1,7.116
CCc1ocnc1C(=O)N1CCOC(c2nc(C)n[nH]2)C1 (configuration not stated),14.04
O=C(c1ccncc1F)N1C[C@H]2CC[C@@H]1CN(Cc1cccnc1)C2,5.333
CS(=O)(=O)N1CCCn2nc(CNc3cc(C#N)ccn3)cc2C1,13.19
Cc1occc1C(=O)NCc1cccnc1N(C)C,16.84
Cc1c(C2CCCN(C(=O)OC(C)(C)C)C2)n2c(nc1=O)CCC2 (configuration not stated),18.75
Cn1cc(NC(=O)N2CCC(OCc3ccccc3)CC2)ccc1=O,19.2
CCn1ncc(CN2CCCC(C(=O)c3ccc(Cl)cc3)C2)c1C (configuration not stated),3.015
CC1CCN(CCCNS(=O)(=O)c2cccc(F)c2)CC1,6.299
CCN1CCC(CC(=O)NCC(O)c2ccc3ccccc3c2)CC1 (configuration not stated),2.41
COc1cccc(NC(=O)c2nc3ccccc3n(C)c2=O)c1,4.507
COc1cccc(S(=O)(=O)CCN2CCC3(CC2)OCCO3)c1,13.66
Cc1nn(C)c(C)c1NC(=O)Nc1cccnc1N1CCCC1,9.946
Cc1cccc2c1cnn2CCC(=O)NCc1csc(C2CC2)n1,16.32
CCc1c(NCc2ccc(F)cc2)cnn1CC(C)C,0
COc1ccc2c(c1)c(-c1nc(C)ncc1CN)cn2C,7.302
O=C(O)CCc1ccc(S(=O)(=O)Nc2cnn(CC3CC3)c2)cc1,12.13
CCn1cc(CN2CCCC2c2nc(-c3ccccc3)no2)cc1C#N (configuration not stated),9.045
Cc1oncc1C(=O)N1CC[C@@H]2[C@@H]1CC(=O)N2Cc1cccnc1,1.639
Cc1cnn(CC2CN(CC(=O)Nc3c(C)nn(C)c3C)CCO2)c1 (configuration not stated),16.25
Cc1cc(C)cc(C2(C(=O)NCC3CCN(CC(F)(F)F)C3)CC2)c1 (configuration not stated),15.92
CN(CCOc1ccccc1F)C1CCOC1=O (configuration not stated),10.45
CCC1CN(CC(=O)NC(C)C)CCO1 (configuration not stated),6.129
Cc1nc(NC(=O)CCN2C(=O)c3ccccc3NC2C(C)C)sc1C (configuration not stated),11.26
CC(Cn1ccnc1)NC(=O)C1(c2cccc(Cl)c2)CC1 (configuration not stated),21.23
O=S(=O)(N1CCOCC1)N1CCCC1Cn1cccn1 (configuration not stated),14.84
OC(CNc1nc(C2CCCC2)nc2c1CCNCC2)C(F)(F)F (configuration not stated),7.258
CC(C)c1ccsc1C(=O)N1CCCN(Cc2cscn2)CC1,9.722
CC1CN(C(=O)c2cccc(OCc3cscn3)c2)CCO1 (configuration not stated),12.72
CN(Cc1nc(C(F)(F)F)cs1)C(=O)CCc1ccccn1,23.21
CN(Cc1cnn(C)c1)C(=O)C1COCC(=O)N1Cc1ccccc1 (configuration not stated),14.43
COc1cc(C(=O)N2CCCC(n3cncn3)C2)ccc1C (configuration not stated),7.542
Cc1nc(C)n(CC2CN(Cc3cc(C#N)ccc3F)CCO2)n1 (configuration not stated),18.72
O=C(NCc1cccnc1)[C@@H]1CC[C@@H]2[C@@H](CCN2c2ncc(F)cn2)O1,8.242
COCCc1ncc(CNC2(c3ccc(Cl)cc3Cl)CC2)cn1,11.58
O=C1CCC2(CCN(Cc3ccoc3)CC2)N1OCc1ccccc1F,4.467
Cc1cc(C(=O)N2CCN(Cc3ccsc3)CC2)c(C)n1C1CC1,28.61
Cc1nc(N)ccc1CC1COc2ccccc2C1 (configuration not stated),5.516
c1coc(-c2nc3c(c(NCc4n[nH]c5c4CCC5)n2)CCNCC3)c1,1.504
O=C(NCc1ncc(-c2ccccc2)o1)NC1CCC(O)CC1 (configuration not stated),16.06
NC(CNS(=O)(=O)Cc1cccc2cccnc12)c1ccccc1 (configuration not stated),20.44
O=C(c1ccn(-c2ccccc2)n1)N1CCCC(n2cccn2)C1 (configuration not stated),25.72
Cc1nc2c(c(NC3CC3)n1)CCN(C(=O)C(C)(C)O)CC2,11.11
Cc1nc(CN(Cc2ccccc2)C2CCS(=O)(=O)C2)oc1C (configuration not stated),13.39

The last 7 entries again:

compound	Inhibition
Cc1nc(N)ccc1CC1COc2ccccc2C1 (configuration not stated)	5.516
c1coc(-c2nc3c(c(NCc4n[nH]c5c4CCC5)n2)CCNCC3)c1	1.504
O=C(NCc1ncc(-c2ccccc2)o1)NC1CCC(O)CC1 (configuration not stated)	16.06
NC(CNS(=O)(=O)Cc1cccc2cccnc12)c1ccccc1 (configuration not stated)	20.44
O=C(c1ccn(-c2ccccc2)n1)N1CCCC(n2cccn2)C1 (configuration not stated)	25.72
Cc1nc2c(c(NC3CC3)n1)CCN(C(=O)C(C)(C)O)CC2	11.11
Cc1nc(CN(Cc2ccccc2)C2CCS(=O)(=O)C2)oc1C (configuration not stated)	13.39